Source: patent US20040023884A1 (priority 1993, published 2004)
Several values for one entry are separate records, joined by “and”; a condition that tells them apart may be missing. Identical values can stand only once. Where a sequence shows no end group, the ends are not given.

Assay: peptide synthesis
Conditions: for purity (crude or final not stated): analytical reverse-phase HPLC, VYDAC C-18, 220 nm, main peak area %, electrospray ionization MS

Substance | purity (crude or final not stated) (whole synthesis) [%] | further results
KWQLRSKGKIKFKA (KWQLRSKGKIKIFKA) | 17 | –
KWKVFKKIEK + 148-161 | 27 | –
KKRAISFLGKKWQK | 32 | –
KRFLKKWKAQKRFLKKWKAQKRFLK | 14 | –
βAla-Nα,Nε-[Nα,Nε(BPI.13)1-Lys]Lys | 49 | –
KSKVGWLIQLFHKK | – | step yield (purification step, assuming desired peptide constituted 69% of starting material): 55%; crude HPLC purity (whole synthesis, 220 nm): about 69%; final HPLC purity (whole synthesis, 220 nm): 98%; purity (crude or final not stated) (whole synthesis, run 1): 78% and 69%
QKRFLKKWKAQKRFLKKWKAQKRFLK | 21 | –
βAla-Nα,Nε-[Nα,Nε(BPI.2)1 -Lys]Lys | 54 | –
